At least one structure is not confirmed: it was looked up by name or label, or the drawing left a doubt.
Key:
db/db mice [1] = test: Antidiabetic effects in db/db mice, four weeks of daily oral dosing; assay type: in vivo; settings: after four weeks of daily oral dosing (Compound AW, BH 150 mg/kg; pioglitazone 100 mg/kg)
Description: Db/db mice have a defect in leptin signaling, leading to hyperphagia, obesity and diabetes. Moreover, unlike ob/ob mice which have relatively robust islets, their insulin-producing pancreatic islet cells undergo failure during chronic hyperglycemia, so that they transition from hyperinsulinemia (associated with peripheral insulin resistance) to hypoinsulinemic diabetes.
Male db/db mice were given daily oral treatments with vehicle (0.75% hydroxypropylmethylcellulose) or antidiabetic compounds as indicated below. Blood samples were obtained via the retro-orbital sinus for serum chemistry analysis, or via the tail vein for glucose measurement with a test strip and glucometer.
The dose of pioglitazone used in this experiment was reported in the literature to be a maximally-effective dose for treatment of db/db mice (Shimaya et al. (2000), Metabolism 49:411-7).

ob/ob mice = test: Hyperglycemia, hyperlipidemia, fatty liver disease and weight gain in ob/ob obese diabetic mice, daily oral dosing; assay type: in vivo, C57BL/6 mice
Description: Ob/ob mice have a defect in the gene for leptin, a protein involved in appetite regulation and energy metabolism, and are hyperphagic, obese, and insulin resistant. They develop hyperglycemia and fatty liver.

db/db mice [2] = test: Antidiabetic effects in db/db mice, second experiment, 8 weeks of treatment; assay type: in vivo; settings: after 8 weeks of treatment
Description: Blood samples were obtained via the retro-orbital sinus for serum chemistry analysis, or via the tail vein for glucose measurement with a test strip and glucometer.
Groups consisted of 6-8 mice each.

[3] = pioglitazone 30 and 100 mg/kg/day, rosiglitazone 1 to 30 mg/kg/day

In the case of `CCc1ccc(CCOc2ccc(CC3SC(=O)NC3=O)cc2)nc1` (stereo not drawn) [Pioglitazone, pioglitazone, reference compound], the blood glucose (db/db mice [1]) is reported as “its activity had largely failed at the 4 week time point and thereafter”, the “liver fat droplets (liver histology)” value (ob/ob mice; daily treatment for 4 weeks) is reported as “neither pioglitazone nor rosiglitazone reduced the size or density of fat droplets” and the “weight gain relative to vehicle-treated mice” value (ob/ob mice; four week treatment period) is reported as “exacerbated weight gain”. For the same molecule, the “ALT and AST” value (ob/ob mice; [3]) was “induced an elevation in ALT and AST” and the SDH (ob/ob mice; [3]) was “did not change SDH”.

With `CN(CCOc1ccc(CC2SC(=O)NC2=O)cc1)c1ccccn1` (stereo not drawn) [Rosiglitazone, rosiglitazone, reference compound] the “blood glucose and triglycerides compared to vehicle-treated controls” value (db/db mice [2]) was “significantly lower”.

From US6924314B2, “Compounds for the treatment of metabolic disorders” (Wellstat Therapeutics Corporation, priority 2001, dated 2005)
